Reference: ChEMBL document CHEMBL1125639, “Synthesis and resolution of (+-)-7-chloro-8-hydroxy-1-(3'-iodophenyl)-3-methyl-2,3,4,5-tetrahydro- 1H-3- benzazepine (TISCH): a high affinity and selective iodinated ligand for CNS D1 dopamine receptor” (J Med Chem, 1991)

Species on record: Rattus norvegicus
Assay type: functional, Striatum, Membrane

Q: With CC(C)NCC(O)COc1cccc2ccccc12 (racemic) [PROPRANOLOL] as the molecule, how does the Ki read?
A: > 5 µM
